The record followed here is patent US10788499B2 (University of Washington, priority 2015, dated 2020).

The nature of this data set: peptide synthesis. The conditions noted are these: lipidation step.

In turn, “N-Ac-Ala-Leu-Leu-Pro-Phe-Gly-Cys-S—COC11H23 (ALLPFGC; N-acetyl, S-palmitoyl cysteine; printed: Ala-Leu-Leu-Pro-Phe-Gly-Cys-)” gave a step yield of 69%.
